These are yes or no findings as the source states them, for the method shown. In cells and extracts the contact can be indirect. Some entries that bind do so weakly or less than the wild type.
Target: GST::CSN5^MPN (human) (UniProt Q92905)
Test: pull-down

The chains behind the UniProt entries cited, without tags or fusion partners. Residues count along the entry.
UniProt Q92905, 1-257: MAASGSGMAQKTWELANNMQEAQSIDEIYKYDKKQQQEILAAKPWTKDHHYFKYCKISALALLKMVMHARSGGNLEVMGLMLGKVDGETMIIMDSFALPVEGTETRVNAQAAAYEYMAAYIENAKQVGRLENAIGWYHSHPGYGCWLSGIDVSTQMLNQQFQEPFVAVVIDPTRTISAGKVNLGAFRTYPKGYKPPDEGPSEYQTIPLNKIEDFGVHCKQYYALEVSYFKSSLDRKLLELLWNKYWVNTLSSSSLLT
UniProt Q14671, 828-1176: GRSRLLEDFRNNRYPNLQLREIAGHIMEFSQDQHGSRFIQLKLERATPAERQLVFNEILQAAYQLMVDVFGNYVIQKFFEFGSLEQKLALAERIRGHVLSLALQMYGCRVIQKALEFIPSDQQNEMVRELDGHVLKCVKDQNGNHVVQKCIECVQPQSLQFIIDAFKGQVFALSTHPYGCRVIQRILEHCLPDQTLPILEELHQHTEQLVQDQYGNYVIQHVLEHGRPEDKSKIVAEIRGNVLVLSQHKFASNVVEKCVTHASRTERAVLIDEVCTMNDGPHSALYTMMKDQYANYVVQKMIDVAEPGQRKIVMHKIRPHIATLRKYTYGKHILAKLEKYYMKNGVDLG

binding: binds
Substance: His6::PUM1^RBD (from UniProt Q14671 828-1176) (domain or fragment)

Reference: doi:10.1101/2022.06.22.497213
